Laboratory results published in the supplement of paper PMC12067093, “Discovery and optimisation of a covalent ligand for TRIM25 and its application to targeted protein ubiquitination” (Chemical Science, 2025).
This is one part of the list.

The chains behind the UniProt entries cited, without tags or fusion partners. Where a name states a change or a piece, a line headed by the entry shows the natural chain unless it says otherwise.
UniProt Q9Y5W7: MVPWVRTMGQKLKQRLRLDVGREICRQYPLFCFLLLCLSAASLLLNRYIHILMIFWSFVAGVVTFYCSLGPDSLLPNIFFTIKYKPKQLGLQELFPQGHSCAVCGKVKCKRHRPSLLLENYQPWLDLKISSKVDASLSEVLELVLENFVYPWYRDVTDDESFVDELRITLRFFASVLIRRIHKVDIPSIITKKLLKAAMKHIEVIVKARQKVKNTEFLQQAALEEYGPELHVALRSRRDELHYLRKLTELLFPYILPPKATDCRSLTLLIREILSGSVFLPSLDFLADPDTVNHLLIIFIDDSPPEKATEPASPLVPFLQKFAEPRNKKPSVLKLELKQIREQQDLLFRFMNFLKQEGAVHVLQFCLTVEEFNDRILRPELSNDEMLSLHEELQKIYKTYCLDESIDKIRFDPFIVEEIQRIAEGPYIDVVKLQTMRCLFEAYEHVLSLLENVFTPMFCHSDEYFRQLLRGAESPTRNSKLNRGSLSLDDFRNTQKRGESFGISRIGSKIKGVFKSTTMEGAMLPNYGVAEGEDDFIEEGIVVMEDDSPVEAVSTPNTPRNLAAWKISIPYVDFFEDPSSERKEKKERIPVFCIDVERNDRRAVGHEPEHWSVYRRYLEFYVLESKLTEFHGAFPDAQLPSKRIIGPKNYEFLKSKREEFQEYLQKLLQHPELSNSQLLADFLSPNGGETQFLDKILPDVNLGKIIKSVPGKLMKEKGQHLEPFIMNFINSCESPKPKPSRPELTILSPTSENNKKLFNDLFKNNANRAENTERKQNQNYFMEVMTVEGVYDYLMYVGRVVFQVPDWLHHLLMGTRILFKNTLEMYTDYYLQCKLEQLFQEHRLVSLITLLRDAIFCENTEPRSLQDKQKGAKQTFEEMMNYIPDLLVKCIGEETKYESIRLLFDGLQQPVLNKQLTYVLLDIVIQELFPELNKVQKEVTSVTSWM
UniProt O60493, whole entry, looked up: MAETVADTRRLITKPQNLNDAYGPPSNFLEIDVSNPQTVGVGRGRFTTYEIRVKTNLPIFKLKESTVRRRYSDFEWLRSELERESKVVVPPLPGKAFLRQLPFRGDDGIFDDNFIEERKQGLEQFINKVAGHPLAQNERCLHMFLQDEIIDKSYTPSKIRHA
UniProt Q92673: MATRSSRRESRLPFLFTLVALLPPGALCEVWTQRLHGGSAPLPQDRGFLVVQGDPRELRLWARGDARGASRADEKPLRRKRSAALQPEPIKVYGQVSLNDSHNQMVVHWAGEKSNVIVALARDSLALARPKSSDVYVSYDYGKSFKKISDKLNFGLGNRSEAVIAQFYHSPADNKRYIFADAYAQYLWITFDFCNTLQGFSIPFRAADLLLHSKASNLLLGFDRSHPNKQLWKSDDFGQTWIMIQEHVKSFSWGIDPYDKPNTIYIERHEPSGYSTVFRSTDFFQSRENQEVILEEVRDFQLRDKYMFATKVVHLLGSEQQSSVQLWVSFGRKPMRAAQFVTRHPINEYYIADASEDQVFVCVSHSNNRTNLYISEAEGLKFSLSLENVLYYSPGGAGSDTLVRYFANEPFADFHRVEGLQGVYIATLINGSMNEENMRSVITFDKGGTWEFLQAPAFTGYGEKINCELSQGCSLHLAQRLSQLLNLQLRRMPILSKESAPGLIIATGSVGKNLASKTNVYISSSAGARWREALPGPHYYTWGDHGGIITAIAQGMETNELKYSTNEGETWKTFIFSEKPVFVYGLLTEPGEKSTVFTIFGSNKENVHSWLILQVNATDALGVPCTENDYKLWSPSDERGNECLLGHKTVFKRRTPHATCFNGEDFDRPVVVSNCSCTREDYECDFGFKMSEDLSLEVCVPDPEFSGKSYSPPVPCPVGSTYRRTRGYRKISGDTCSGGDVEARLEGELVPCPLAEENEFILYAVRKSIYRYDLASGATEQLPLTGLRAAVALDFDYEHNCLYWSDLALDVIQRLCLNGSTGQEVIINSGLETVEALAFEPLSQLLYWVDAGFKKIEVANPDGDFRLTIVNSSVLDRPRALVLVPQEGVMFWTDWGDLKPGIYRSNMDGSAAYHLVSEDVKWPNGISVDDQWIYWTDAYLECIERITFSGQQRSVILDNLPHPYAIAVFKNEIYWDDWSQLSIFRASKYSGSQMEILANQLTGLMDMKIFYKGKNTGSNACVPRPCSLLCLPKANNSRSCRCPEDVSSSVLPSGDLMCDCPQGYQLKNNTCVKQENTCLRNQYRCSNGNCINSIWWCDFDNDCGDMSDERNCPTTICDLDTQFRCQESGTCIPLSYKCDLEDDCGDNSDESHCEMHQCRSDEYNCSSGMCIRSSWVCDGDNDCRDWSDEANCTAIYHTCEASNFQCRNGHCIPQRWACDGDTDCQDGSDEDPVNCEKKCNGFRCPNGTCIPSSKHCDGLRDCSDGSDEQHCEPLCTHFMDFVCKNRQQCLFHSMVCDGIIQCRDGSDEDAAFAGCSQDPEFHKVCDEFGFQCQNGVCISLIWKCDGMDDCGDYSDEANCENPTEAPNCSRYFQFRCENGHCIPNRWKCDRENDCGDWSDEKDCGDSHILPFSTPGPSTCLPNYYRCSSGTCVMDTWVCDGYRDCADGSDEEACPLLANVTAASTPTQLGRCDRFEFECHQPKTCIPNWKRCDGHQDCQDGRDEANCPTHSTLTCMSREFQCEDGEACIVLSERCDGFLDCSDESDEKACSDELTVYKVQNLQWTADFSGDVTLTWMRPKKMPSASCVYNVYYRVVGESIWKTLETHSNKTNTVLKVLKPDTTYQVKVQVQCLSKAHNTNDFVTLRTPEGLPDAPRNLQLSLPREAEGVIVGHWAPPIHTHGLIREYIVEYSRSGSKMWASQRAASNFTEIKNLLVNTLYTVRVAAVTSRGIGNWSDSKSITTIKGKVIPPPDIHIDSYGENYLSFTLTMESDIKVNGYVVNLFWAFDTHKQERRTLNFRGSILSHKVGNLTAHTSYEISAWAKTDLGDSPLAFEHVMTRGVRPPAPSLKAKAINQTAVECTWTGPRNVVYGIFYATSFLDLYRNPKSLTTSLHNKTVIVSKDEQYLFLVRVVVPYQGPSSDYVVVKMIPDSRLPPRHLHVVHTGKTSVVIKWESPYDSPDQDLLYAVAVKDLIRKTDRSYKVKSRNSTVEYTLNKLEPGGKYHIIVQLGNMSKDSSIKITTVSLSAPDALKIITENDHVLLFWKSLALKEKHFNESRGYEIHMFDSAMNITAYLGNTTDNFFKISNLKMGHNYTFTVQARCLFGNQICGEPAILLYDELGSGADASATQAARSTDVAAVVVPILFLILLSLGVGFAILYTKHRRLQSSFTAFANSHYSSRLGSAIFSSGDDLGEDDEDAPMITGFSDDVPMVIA
UniProt Q8WXA9: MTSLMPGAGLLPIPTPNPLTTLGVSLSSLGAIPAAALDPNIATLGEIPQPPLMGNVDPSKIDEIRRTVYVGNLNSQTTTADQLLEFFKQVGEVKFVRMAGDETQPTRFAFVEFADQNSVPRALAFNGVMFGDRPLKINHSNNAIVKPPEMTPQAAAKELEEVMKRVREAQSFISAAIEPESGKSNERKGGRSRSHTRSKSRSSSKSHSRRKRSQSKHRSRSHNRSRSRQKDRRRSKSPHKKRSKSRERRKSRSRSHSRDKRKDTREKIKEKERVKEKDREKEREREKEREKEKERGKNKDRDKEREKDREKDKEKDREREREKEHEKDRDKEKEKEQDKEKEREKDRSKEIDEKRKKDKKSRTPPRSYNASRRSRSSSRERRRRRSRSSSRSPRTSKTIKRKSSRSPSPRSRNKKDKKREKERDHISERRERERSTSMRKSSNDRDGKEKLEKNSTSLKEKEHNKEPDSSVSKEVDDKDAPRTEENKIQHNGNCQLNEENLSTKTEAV
UniProt O94964: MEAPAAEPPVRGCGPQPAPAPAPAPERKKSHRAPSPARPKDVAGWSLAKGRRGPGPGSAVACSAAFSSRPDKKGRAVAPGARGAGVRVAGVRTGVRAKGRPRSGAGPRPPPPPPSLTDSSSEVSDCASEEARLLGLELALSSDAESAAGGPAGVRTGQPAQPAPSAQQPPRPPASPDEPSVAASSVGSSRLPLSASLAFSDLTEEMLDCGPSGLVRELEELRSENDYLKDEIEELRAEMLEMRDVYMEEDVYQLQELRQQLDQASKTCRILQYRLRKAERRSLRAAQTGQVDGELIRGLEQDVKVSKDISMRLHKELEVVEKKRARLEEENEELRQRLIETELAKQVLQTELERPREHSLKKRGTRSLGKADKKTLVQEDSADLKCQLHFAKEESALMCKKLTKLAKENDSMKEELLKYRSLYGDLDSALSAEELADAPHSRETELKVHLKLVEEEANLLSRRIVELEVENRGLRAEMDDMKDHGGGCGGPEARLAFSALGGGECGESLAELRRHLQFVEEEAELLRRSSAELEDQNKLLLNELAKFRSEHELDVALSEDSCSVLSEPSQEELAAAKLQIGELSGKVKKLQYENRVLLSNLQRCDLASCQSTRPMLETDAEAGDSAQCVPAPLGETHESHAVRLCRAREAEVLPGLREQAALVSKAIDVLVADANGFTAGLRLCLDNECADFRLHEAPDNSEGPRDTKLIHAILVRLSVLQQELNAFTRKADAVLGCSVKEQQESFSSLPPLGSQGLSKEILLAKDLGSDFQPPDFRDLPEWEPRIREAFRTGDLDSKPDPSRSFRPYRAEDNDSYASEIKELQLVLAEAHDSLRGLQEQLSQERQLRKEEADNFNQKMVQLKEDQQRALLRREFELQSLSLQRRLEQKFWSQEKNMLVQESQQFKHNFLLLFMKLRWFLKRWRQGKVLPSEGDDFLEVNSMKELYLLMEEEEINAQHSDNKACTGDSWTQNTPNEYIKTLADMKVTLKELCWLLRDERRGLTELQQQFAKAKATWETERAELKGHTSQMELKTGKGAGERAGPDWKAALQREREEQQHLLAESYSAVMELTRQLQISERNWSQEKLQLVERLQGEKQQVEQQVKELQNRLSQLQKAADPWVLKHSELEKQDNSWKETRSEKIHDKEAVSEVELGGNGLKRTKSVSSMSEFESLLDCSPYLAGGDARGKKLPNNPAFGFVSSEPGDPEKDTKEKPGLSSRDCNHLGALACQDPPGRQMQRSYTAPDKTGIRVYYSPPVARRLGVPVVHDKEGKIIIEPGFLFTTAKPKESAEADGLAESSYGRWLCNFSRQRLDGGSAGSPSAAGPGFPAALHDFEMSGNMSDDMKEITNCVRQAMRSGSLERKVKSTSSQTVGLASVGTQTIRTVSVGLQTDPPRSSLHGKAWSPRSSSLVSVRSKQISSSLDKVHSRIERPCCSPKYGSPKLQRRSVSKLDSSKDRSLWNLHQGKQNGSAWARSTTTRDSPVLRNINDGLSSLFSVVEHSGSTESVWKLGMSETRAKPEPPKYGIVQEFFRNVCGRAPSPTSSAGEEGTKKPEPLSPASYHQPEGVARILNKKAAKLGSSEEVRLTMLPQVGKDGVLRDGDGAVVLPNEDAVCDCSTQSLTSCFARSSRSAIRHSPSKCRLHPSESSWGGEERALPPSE
UniProt Q5M775: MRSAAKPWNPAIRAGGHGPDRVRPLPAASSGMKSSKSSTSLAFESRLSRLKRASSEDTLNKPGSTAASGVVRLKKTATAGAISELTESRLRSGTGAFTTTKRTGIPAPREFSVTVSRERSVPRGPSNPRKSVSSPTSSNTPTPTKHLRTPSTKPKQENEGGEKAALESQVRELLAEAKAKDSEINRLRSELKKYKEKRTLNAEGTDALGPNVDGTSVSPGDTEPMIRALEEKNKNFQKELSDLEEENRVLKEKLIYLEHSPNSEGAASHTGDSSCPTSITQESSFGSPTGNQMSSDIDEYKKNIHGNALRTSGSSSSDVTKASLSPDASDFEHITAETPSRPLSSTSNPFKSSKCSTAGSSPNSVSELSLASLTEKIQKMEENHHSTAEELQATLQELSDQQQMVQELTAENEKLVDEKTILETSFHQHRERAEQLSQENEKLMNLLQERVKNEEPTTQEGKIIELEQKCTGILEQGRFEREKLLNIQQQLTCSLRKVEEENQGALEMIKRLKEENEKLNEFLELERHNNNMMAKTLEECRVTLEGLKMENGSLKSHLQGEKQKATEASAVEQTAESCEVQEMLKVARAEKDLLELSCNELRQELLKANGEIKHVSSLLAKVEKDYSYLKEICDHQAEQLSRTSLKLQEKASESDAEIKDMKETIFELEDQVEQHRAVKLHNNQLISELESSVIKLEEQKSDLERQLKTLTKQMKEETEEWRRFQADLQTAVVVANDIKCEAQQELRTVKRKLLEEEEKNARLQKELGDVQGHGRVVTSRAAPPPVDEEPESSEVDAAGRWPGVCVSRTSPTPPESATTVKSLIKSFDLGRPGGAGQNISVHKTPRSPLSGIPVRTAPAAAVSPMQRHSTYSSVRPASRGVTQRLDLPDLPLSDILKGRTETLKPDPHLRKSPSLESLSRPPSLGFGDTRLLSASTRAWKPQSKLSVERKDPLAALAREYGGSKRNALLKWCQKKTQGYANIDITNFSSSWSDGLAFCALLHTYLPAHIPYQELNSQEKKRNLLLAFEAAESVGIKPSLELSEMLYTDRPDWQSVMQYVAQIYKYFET

compound: Cc1cc(ccc1-c1ccccc1)C(=O)N1CCCN(CC1)C(=O)CCl [compound 10]; experiment: probe-labelled cysteine peptide fold change vs DMSO (competition) (log2 fold change); higher = less target engagement (more negative = stronger competition); conditions: 10 µM; THP-1; incubation time: 4 h
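Note: competitive profiling in live THP-1 cells: cysteine peptides tagged with an iodoacetamide desthiobiotin (IA-DTB) probe, intensity after compound treatment relative to DMSO-treated cells.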

Row | Target | probe-labelled cysteine peptide fold change
1 | SPTAN1_Q13813_1444_MMLDQCLELQLFHR (UniProt Q13813) | 0.116
2 | SNX14_Q9Y5W7_732_GQHLEPFIMNFINSCESPKPK (UniProt Q9Y5W7) | -0.0439
3 | SRPRB_Q9Y5M8_100_DTQTSITDSCAVYR (UniProt Q9Y5M8) | -0.0956
4 | SPTLC2_O15270_438_ECVQQLAENTR (UniProt O15270) | -0.0228
5 | SNX27_Q96L92_432+434_TCEGYNEIIFPHCACDSR (UniProt Q96L92) | 0.629
6 | SPEN_Q96T58_877_NRLELMPCVVLTR (UniProt Q96T58) | 0.0437
7 | SRM_P19623_209_EDGVLCCQGECQWLHLDLIK (UniProt P19623) | 0.155
8 | SNX3_O60493_140_CLHMFLQDEIIDKSYTPSKIRHA (UniProt O60493) | -0.108
9 | SORL1_Q92673_1376_CENGHCIPNR (UniProt Q92673) | -0.0681
10 | SP3_Q02447_686_KFVCPECSK (UniProt Q02447) | 0.045
11 | SORL1_Q92673_1484_TCIPNWK (UniProt Q92673) | -0.439
12 | SREK1_Q8WXA9-2_96_ALIVVPCAEGK (UniProt Q8WXA9) | -0.00998
13 | SRM_P19623_71_TYGNVLVLDGVIQCTERDEFSYQEMIANLPLCSHPNPR (UniProt P19623) | 0.225
14 | SOGA1_O94964_499_KADAVLGCSVK (UniProt O94964) | -0.215
15 | SNX14_Q9Y5W7_593_IPVFCIDVER (UniProt Q9Y5W7) | 0.0529
16 | SPECC1_Q5M775_578_ATEASAVEQTAESCEVQEMLK (UniProt Q5M775) | -0.116
